# The supplement of paper PMC10849652
# Chains of the proteins cited; added tags and fusions are not shown. Lines headed by an entry give the natural chain unless they say otherwise; changes in a name come on top.
# UniProt Q7Z6V5: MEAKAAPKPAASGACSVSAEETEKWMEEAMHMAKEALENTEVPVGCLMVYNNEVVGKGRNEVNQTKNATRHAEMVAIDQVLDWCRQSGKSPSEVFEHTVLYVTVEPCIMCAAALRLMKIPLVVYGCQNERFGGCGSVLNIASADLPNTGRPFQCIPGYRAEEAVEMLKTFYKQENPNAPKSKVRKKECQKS
# UniProt P42025, whole entry, looked up: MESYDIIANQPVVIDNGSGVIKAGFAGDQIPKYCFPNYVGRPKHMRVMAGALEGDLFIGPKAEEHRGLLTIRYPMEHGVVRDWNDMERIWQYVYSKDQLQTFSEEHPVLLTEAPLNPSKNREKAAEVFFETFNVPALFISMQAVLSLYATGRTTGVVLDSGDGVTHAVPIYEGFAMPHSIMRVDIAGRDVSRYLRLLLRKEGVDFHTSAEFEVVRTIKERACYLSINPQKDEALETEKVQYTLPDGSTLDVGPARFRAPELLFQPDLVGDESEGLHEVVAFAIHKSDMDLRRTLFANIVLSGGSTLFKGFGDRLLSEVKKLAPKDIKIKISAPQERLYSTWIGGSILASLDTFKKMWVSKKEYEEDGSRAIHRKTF
# UniProt O95573: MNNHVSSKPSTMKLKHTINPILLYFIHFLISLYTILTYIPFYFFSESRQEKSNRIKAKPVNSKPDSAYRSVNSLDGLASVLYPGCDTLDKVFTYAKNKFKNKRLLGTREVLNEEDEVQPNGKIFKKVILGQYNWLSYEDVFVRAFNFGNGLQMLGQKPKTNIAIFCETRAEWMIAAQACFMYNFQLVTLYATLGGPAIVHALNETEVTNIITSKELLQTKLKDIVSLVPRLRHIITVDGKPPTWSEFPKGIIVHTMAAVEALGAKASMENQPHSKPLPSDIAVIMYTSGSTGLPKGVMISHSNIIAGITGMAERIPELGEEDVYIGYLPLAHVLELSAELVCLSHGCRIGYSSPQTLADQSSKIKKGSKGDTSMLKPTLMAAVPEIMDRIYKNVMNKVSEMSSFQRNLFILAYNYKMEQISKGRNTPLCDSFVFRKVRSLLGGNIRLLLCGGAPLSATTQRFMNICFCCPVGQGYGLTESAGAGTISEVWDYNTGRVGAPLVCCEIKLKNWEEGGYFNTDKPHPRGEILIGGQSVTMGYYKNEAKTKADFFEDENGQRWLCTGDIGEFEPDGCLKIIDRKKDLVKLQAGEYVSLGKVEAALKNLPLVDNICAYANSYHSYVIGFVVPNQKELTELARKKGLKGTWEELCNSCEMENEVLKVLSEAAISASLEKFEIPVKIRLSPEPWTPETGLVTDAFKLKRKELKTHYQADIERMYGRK
# UniProt P11766: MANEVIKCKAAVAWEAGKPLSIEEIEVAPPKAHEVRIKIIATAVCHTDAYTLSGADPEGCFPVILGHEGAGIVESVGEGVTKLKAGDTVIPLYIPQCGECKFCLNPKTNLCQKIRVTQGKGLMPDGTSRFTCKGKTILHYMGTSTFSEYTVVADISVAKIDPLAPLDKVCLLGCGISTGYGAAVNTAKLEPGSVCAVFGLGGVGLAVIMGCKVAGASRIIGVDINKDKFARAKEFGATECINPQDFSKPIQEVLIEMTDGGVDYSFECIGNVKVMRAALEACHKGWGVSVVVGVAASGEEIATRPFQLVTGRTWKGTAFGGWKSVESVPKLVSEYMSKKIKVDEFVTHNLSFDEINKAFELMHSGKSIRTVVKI
# UniProt Q9Y305: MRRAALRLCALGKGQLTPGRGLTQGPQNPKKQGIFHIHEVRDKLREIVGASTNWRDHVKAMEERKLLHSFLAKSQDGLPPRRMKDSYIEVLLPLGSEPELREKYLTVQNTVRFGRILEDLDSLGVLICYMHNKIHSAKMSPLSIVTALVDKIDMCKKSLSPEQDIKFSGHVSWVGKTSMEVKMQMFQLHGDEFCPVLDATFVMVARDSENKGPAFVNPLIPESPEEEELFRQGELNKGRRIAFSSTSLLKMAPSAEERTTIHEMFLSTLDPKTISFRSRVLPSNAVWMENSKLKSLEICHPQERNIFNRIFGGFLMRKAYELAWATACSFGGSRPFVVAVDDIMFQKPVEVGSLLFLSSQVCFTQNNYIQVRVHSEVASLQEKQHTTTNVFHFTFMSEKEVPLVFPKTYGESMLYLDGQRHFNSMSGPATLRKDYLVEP
# UniProt P24666: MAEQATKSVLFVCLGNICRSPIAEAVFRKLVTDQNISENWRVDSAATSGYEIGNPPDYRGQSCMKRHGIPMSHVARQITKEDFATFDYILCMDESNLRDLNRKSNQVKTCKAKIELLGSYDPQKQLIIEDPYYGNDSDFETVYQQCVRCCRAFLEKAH
# UniProt Q9UHB7: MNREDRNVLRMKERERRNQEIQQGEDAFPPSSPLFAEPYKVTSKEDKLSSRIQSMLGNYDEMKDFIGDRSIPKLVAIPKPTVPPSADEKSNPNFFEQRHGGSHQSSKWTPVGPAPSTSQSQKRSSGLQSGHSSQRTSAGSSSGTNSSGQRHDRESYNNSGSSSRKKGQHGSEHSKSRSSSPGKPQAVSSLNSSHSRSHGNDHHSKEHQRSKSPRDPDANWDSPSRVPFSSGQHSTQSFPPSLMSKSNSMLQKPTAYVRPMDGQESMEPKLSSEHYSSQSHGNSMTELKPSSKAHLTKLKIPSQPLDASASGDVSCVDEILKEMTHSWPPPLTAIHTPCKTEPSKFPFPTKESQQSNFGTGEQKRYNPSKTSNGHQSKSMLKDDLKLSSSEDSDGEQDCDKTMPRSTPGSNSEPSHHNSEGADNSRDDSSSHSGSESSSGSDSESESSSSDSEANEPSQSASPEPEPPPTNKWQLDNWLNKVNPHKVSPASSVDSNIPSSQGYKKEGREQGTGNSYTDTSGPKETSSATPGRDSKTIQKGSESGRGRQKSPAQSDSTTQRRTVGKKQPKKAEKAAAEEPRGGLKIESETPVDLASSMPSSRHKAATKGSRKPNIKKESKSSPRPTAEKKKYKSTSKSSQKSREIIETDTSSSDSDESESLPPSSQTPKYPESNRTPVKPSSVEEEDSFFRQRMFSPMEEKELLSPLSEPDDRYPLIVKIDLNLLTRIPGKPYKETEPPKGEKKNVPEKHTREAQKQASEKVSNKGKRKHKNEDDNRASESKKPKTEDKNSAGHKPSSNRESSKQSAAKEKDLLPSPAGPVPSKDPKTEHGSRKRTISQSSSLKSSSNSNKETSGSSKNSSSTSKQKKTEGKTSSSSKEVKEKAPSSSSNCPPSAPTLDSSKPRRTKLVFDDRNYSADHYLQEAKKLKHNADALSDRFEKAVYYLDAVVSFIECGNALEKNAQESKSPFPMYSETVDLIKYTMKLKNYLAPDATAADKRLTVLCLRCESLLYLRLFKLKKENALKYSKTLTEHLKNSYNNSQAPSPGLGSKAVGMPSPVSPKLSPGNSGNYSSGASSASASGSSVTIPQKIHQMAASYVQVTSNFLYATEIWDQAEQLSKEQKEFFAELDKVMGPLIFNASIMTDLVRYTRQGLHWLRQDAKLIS
# UniProt O14734: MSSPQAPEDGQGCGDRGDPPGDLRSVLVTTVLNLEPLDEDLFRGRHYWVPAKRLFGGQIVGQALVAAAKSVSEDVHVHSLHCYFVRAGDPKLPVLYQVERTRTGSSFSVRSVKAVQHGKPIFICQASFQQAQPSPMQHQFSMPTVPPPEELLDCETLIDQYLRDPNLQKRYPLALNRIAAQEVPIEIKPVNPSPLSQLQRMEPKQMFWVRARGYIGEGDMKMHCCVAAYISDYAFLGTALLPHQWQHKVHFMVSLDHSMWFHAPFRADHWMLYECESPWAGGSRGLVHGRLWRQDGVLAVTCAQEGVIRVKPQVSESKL
# UniProt Q7Z591: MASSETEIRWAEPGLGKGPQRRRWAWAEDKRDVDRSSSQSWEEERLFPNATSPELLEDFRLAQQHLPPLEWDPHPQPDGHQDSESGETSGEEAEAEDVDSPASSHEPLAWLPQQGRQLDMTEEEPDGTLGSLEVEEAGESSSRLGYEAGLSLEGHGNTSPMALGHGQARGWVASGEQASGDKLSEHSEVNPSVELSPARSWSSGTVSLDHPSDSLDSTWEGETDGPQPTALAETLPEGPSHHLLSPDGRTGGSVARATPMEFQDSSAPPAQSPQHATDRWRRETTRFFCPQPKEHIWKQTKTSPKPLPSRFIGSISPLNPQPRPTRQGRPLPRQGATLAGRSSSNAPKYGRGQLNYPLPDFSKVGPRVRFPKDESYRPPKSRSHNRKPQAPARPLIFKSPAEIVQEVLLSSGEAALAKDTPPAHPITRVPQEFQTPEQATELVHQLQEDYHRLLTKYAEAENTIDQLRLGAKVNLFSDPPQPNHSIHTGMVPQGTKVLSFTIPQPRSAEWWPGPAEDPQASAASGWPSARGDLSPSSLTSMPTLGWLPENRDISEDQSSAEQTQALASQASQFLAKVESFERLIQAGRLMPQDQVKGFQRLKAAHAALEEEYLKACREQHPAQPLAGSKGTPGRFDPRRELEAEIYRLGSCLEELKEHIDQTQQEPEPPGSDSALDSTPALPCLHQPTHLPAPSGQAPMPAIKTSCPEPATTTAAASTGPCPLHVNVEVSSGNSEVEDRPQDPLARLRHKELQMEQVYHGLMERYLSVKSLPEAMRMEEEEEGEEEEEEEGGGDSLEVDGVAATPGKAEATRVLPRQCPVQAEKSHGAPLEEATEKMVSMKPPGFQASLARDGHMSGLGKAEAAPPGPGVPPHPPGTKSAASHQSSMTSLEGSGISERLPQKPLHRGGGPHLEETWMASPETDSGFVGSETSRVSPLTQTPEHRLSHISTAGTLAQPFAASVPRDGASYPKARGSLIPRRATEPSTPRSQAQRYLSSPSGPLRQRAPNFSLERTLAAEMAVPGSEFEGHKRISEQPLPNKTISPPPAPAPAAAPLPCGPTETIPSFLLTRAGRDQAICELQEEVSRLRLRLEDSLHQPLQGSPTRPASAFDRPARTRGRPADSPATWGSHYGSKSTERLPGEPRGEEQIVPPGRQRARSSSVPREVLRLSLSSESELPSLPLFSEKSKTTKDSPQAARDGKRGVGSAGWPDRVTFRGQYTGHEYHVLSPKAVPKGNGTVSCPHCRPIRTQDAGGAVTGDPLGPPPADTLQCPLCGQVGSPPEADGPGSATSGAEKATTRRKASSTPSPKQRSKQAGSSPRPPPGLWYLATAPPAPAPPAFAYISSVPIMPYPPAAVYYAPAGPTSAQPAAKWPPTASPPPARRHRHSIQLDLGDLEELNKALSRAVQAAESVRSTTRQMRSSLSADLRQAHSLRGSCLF
# UniProt O00116: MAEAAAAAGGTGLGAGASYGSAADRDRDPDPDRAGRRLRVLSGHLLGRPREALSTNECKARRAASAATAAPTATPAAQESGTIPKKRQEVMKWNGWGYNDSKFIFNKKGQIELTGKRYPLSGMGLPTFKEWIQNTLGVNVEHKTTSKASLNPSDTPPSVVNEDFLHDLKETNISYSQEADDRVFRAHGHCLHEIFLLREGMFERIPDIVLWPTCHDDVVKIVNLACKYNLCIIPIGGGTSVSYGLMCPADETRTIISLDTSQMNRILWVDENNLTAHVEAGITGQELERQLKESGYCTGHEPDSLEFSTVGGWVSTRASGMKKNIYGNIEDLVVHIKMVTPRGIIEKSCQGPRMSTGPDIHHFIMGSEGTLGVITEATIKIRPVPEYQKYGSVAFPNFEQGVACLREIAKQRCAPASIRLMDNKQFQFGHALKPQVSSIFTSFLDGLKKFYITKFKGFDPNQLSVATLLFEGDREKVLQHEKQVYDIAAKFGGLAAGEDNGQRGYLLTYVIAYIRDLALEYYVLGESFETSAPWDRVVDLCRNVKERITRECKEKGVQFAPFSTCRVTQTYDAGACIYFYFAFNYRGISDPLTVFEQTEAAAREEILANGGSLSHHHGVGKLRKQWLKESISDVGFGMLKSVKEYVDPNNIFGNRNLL
# UniProt Q16186: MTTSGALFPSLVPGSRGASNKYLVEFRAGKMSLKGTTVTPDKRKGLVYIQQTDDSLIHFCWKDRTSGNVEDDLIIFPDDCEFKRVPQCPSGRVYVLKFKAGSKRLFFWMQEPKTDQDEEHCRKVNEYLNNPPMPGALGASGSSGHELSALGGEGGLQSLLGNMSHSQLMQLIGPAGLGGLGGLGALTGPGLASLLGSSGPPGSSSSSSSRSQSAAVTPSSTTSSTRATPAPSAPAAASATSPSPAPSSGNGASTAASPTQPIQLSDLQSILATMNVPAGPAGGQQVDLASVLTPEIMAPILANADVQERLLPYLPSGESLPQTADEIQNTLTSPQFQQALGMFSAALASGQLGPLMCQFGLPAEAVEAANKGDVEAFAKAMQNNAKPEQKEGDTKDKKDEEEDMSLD
# UniProt Q96EY9: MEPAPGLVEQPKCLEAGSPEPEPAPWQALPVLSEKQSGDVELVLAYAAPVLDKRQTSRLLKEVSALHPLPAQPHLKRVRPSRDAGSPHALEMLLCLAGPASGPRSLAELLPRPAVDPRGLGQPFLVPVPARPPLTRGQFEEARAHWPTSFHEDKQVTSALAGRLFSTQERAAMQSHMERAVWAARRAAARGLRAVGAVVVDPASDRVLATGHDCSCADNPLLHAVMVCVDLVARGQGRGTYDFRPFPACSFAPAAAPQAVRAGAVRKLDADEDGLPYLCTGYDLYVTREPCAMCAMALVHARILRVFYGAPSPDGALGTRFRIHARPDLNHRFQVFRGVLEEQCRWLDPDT
# This is one part of the list.
# Columns and labels:
# Assay in all cases: log2 fold change, soluble protein after heating vs DMSO (PISA); higher = thermal stabilisation; K562 lysate, 10 uM; active = over 0.2 and 3.5 SD of the protein, either way, in both replicates (recomputed)
# [1] = compound: C1=CC=C(C=C1)[C@H](COC2=CC3=C(C=C2)NC(=O)N3)NC(=O)C4=CC=CN(C4=O)CC5=CC(=C(C=C5)F)F
# Method in brief: (§1)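 Pellets of K562 cells were dounce-homogenised in PBS pH 7.4 with 1 mM MgCl2, and the crude extract was held at 1 mg/mL protein for a 30 min treatment with 10 μM compound. Aliquots were heated for 3 min over 48°C-58°C and pooled before NP-40 was added to 0.5% at 4°C. The supernatant from 21,000xg for 90 min was quantified by TMTpro 16plex LC-MS/MS with channel sums equalised. Values are reported from duplicates as log-two fold change in thermal stability relative to solvent controls.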
# [2] = compound: CC1=C(SC2=C1C(=N[C@H](C3=NN=C(N32)C)CC(=O)N)C4=CC=C(C=C4)Cl)C
# Method in brief: as §1
# [3] = compound: CC1=C2C(=CC=C1)N=C(N(C2=O)C3=CC=CC=C3C)CN4C=NC5=C(N=CN=C54)N
# Method in brief: as §1
# [4] = compound: Cc1sc2c(c1C)C(c1ccc(Cl)cc1)=N[C@@H](CC(=O)OC(C)(C)C)c1nnc(C)n1-2
# Method in brief: as §1
# [5] = compound: c1ccc([C@@H]2C[C@H]2NC2CCNCC2)cc1
# Method in brief: as §1
Target,log2 fold change [1],log2 fold change [2],log2 fold change [3],log2 fold change [4],log2 fold change [5]
ACTG1 (UniProt I3L4N8),inactive: -0.042,inactive: -0.082,inactive: -0.098,inactive: -0.245,inactive: 0.218
AGO4 (UniProt Q9HCK5),inactive: 0.014,inactive: 0.022,inactive: 0.001,inactive: -0.011,inactive: -0.07
ACSS2 isoform 2 (UniProt Q9NR19),inactive: -0.004,inactive: -0.009,inactive: -0.019,inactive: 0.008,inactive: 0.048
ADAT2 (UniProt Q7Z6V5),inactive: 0.007,inactive: 0.064,inactive: -0.009,inactive: 0.004,inactive: -0.025
ACTR5 (UniProt Q9H9F9),inactive: 0.035,inactive: -0.038,inactive: -0.104,inactive: 0.003,inactive: 0.125
AGPAT5 (UniProt Q9NUQ2),inactive: 0.011,inactive: 0.047,inactive: -0.002,inactive: -0.003,inactive: -0.04
AHCYL2 (UniProt Q96HN2),inactive: 0.007,inactive: 0.038,inactive: 0.045,inactive: 0.286,inactive: -0.081
ACTR1B (UniProt P42025),inactive: -0.009,inactive: 0.071,inactive: 0.015,inactive: -0.03,inactive: 0.048
AKAP12 (UniProt Q02952),inactive: 0.203,inactive: -0.26,inactive: 0.004,inactive: -0.138,inactive: -0.204
ACSL3 (UniProt O95573),inactive: -0.115,inactive: 0.045,inactive: 0.025,inactive: 0.023,inactive: -0.004
ADAL (UniProt Q6DHV7),inactive: 0.022,inactive: 0.007,inactive: 0.013,inactive: -0.044,inactive: 0.042
ADH5 (UniProt P11766),inactive: -0.01,inactive: 0.023,inactive: -0.016,inactive: 0.014,inactive: 0
ADD3 (UniProt Q9UEY8),inactive: 0.056,inactive: -0.011,inactive: 0.007,inactive: -0.011,inactive: 0.018
ACOT9 isoform 4 (UniProt Q9Y305),inactive: 0.023,inactive: -0.018,inactive: 0.067,inactive: 0.011,inactive: 0.1
AFG3L2 (UniProt Q9Y4W6),inactive: -0.044,inactive: 0.034,inactive: 0.035,inactive: -0.025,inactive: 0.03
ACP1 (UniProt P24666),inactive: -0.032,inactive: 0.083,inactive: 0.039,inactive: 0.082,inactive: 0.021
ADSS1 (UniProt Q8N142),inactive: 0.047,inactive: -0.03,inactive: 0.012,inactive: 0.021,inactive: 0.008
AFF4 (UniProt Q9UHB7),active: -0.362,inactive: -0.269,inactive: -0.081,inactive: -0.026,inactive: -0.052
ACOT8 (UniProt O14734),inactive: 0.019,inactive: 0.005,inactive: 0.014,inactive: 0.156,inactive: -0.014
AKNA (UniProt Q7Z591),inactive: -0.057,inactive: 0.256,inactive: 0.042,inactive: 0.056,inactive: -0.011
AHNAK (UniProt Q09666),inactive: -0.019,inactive: 0.002,inactive: -0.01,inactive: 0.01,inactive: -0.011

Target,log2 fold change [1],log2 fold change [2],log2 fold change [3],log2 fold change [4],log2 fold change [5]
AGPS (UniProt O00116),inactive: -0.103,inactive: 0.016,inactive: 0.035,inactive: 0.019,inactive: -0.006
ACTL6A (UniProt O96019),inactive: 0.005,inactive: 0.011,inactive: 0.037,inactive: 0.006,inactive: 0.021
ADAM17 (UniProt P78536),inactive: -0.098,active: -0.251,inactive: 0.093,inactive: 0.002,inactive: -0.032
AFF1 isoform 2 (UniProt P51825),inactive: -0.109,inactive: 0.133,inactive: -0.006,inactive: -0.087,inactive: -0.118
ADRM1 (UniProt Q16186),inactive: -0.005,inactive: 0.007,inactive: -0.001,inactive: -0.026,inactive: 0.016
AKR1C2 (UniProt P52895),inactive: -0.012,inactive: 0.047,inactive: 0.047,inactive: -0.184,inactive: -0.107
AGPAT1 (UniProt Q99943),inactive: -0.04,inactive: 0.024,inactive: 0.089,inactive: -0.038,inactive: -0.134
ACTBL2 (UniProt Q562R1),inactive: 0.138,inactive: -0.194,inactive: -0.016,inactive: 0.106,inactive: 0.365
AGPAT3 isoform 3 (UniProt Q9NRZ7),inactive: -0.06,inactive: 0.043,inactive: 0.002,inactive: -0.018,inactive: -0.012
AIMP1 isoform 2 (UniProt Q12904),inactive: -0.033,inactive: 0.01,inactive: 0.006,inactive: 0.029,inactive: 0.044
AKAP11 (UniProt Q9UKA4),inactive: 0.025,inactive: -0.008,inactive: 0.059,inactive: -0.041,inactive: -0.012
ACTN1 isoform 3 (UniProt P12814),inactive: 0.006,inactive: 0.014,inactive: -0.016,inactive: 0,inactive: 0.016
ACTN4 (UniProt O43707),inactive: 0.025,inactive: -0.013,inactive: -0.013,inactive: -0.016,inactive: -0.025
AKAP9 (UniProt Q99996),inactive: -0.032,inactive: -0.013,inactive: 0.063,inactive: -0.033,inactive: 0.036
AKR1C3 (UniProt P42330),inactive: 0.031,inactive: 0.05,inactive: 0.022,inactive: -0.04,inactive: 0.031
AGFG1 isoform 4 (UniProt P52594),inactive: 0.066,inactive: -0.029,inactive: -0.033,inactive: 0.049,inactive: -0.02
ADO (UniProt Q96SZ5),inactive: 0.032,inactive: 0.028,inactive: 0.024,inactive: 0.003,inactive: -0.021
ADAT3 (UniProt Q96EY9),inactive: -0.031,inactive: 0.006,inactive: 0.008,inactive: -0.036,inactive: 0.034
ACTB (UniProt C9JTX5),inactive: -0.222,inactive: 0.044,inactive: 0.115,inactive: 0.055,inactive: 0.433
ADD2 (UniProt P35612),inactive: 0.007,inactive: 0.018,inactive: 0,inactive: -0.017,inactive: -0.034

# Part of the list above, reduced to log2 fold change [5], log2 fold change [4] and log2 fold change [3]:
Target | log2 fold change [5] | log2 fold change [4] | log2 fold change [3]
AFG3L2 (UniProt Q9Y4W6) | inactive: 0.03 | inactive: -0.025 | inactive: 0.035
ACP1 (UniProt P24666) | inactive: 0.021 | inactive: 0.082 | inactive: 0.039
